Measurements reported in PubChem BioAssay AID504764 (Drosophila RNAi Screening Center, 2011).
The screen tested about 22,000 reagents; below is a random part of those with a known target gene and a result. Of all reagents, 403 (1.9%) are marked active. 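Unnormalised raw counts per well; ratio z-scores behind the hit calls and whether each hit raises or lowers signal are not deposited.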 Reagents against one gene are numbered here. Not given: the amount of reagent.

Aim: 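Genes whose knock-down alters Notch-dependent transcription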 (primary screen)
Cell system: Drosophila Kc167 cells
Knock-down reagent: long dsRNA against Drosophila genes
Time to read-out: about 5 days (4 days dsRNA, then 24 h after transfection)
Conditions: transfection of constitutively active membrane-tethered Notch lacking the extracellular domain, read 24 h later
Read-out: 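Firefly luciferase from an E(spl)m3 reporter with active Notch, plus control-promoter and uninduced reporter wells for normalisation; unnormalised counts, duplicate wells a and b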
Direction: induced reporter light, run 1, well a and induced reporter light, run 1, well b: higher = more light from the Notch target reporter with active Notch; control promoter light, run 1, well a and control promoter light, run 1, well b: higher = more light from the viral control promoter (cell number, transfection, viability); uninduced reporter light, run 1, well a: higher = more light from the Notch target reporter without active Notch
Call rule: 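Hit if the duplicate-averaged log2 ratio of induced to control-promoter light gives a plate-wise z beyond ±2, or induced to uninduced beyond ±1.8; weak-control or discordant-duplicate wells dropped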
Calls: active = modifier hit (raised or lowered Notch signal); inactive = not a hit

Target gene | reagent | induced reporter light, run 1, well a | induced reporter light, run 1, well b | control promoter light, run 1, well a | control promoter light, run 1, well b | uninduced reporter light, run 1, well a | call
Trf4 | 1 | 1.03e5 | 92690 | 1.03e5 | 83670 | 8865 | inactive
CG8586 | 1 | 1.93e5 | 2.18e5 | 1.84e5 | 2.00e5 | 13045 | inactive
CG12716 | 1 | 1.24e5 | 1.15e5 | 2.47e5 | 2.02e5 | 10025 | inactive
Cpr47Ec | 1 | 1.03e5 | 1.35e5 | 1.52e5 | 1.29e5 | 11075 | inactive
spg | 1 | 1.22e5 | 1.14e5 | 1.84e5 | 1.44e5 | 10445 | inactive
spg | 2 | 1.21e5 | 1.09e5 | 1.58e5 | 1.56e5 | 12205 | inactive
CG6701 | 1 | 1.64e5 | 1.91e5 | 1.82e5 | 1.83e5 | 12945 | inactive
CG13949 | 1 | 1.56e5 | 1.34e5 | 1.26e5 | 60575 | 12700 | inactive
CG1750 | 1 | 1.93e5 | 1.98e5 | 2.72e5 | 2.54e5 | 10365 | inactive
Acp29AB | 1 | 1.01e5 | 1.01e5 | 64820 | 87080 | 11405 | inactive
mRpL3 | 1 | 32125 | 29035 | 26220 | 25905 | 3110 | inactive
CG42323 | 1 | 60410 | 71615 | 69240 | 58745 | 8265 | inactive
CG42323 | 2 | – | – | – | – | – | inactive
CG31460 | 1 | 1.25e5 | 1.16e5 | 73330 | 66570 | 8815 | inactive
CG14154 | 1 | 1.36e5 | 1.35e5 | 2.07e5 | 1.89e5 | 7865 | inactive
Ptip | 1 | 2.50e5 | 2.14e5 | 3.01e5 | 2.41e5 | 4340 | inactive
Ptip | 2 | 1.15e5 | 85205 | 80735 | 70900 | 7025 | inactive
shep | 1 | 6735 | 7170 | 7260 | 6185 | 4605 | inactive
shep | 2 | 3.01e5 | 1.81e5 | 3.07e5 | 2.63e5 | 12228 | inactive
shep | 3 | 1.26e5 | 1.24e5 | 90605 | 45345 | 12110 | inactive
spel1 | 1 | 1.57e5 | 1.94e5 | 1.77e5 | 1.82e5 | 16275 | inactive
Nop17l | 1 | 2.64e5 | 1.71e5 | 1.57e5 | 1.83e5 | 19160 | inactive
CG14669 | 1 | 6840 | 4955 | 10215 | 9620 | 4065 | inactive
CG14669 | 2 | 1.83e5 | 1.66e5 | 1.50e5 | 1.24e5 | 13715 | inactive
CG14669 | 3 | 1.34e5 | 1.50e5 | 1.29e5 | 1.56e5 | 12080 | inactive
CG14669 | 4 | 98335 | 1.11e5 | 88220 | 68480 | 6915 | inactive
CG11975 | 1 | 1.51e5 | 1.64e5 | 1.25e5 | 1.11e5 | 9325 | inactive
CG8435 | 1 | 99395 | 91525 | 2.06e5 | 1.91e5 | 8110 | inactive
Arp3 | 1 | 80115 | 83770 | 66545 | 30880 | 7045 | inactive
CG12362 | 1 | 2.41e5 | 1.43e5 | 3.42e5 | 2.43e5 | 6615 | inactive
CG17110 | 1 | 1.91e5 | 2.26e5 | 2.43e5 | 1.82e5 | 15270 | inactive
CG13126 | 1 | 1.79e5 | 2.19e5 | 87870 | 1.33e5 | 21545 | inactive
Muc96D | 1 | 1.41e5 | 1.74e5 | 1.79e5 | 1.80e5 | 14345 | inactive
bcn92 | 1 | 1.29e5 | 1.43e5 | 2.25e5 | 1.94e5 | 10490 | inactive
Daxx | 1 | 1.09e5 | 88970 | 96850 | 84400 | 7515 | inactive
rush | 1 | 2.00e5 | 1.79e5 | 2.43e5 | 2.93e5 | 13485 | inactive
CG10750 | 1 | 1.59e5 | 1.58e5 | 1.87e5 | 1.57e5 | 15325 | inactive
CG15641 | 1 | 64035 | 61045 | 67220 | 71220 | 9920 | inactive
MYPT-75D | 1 | 1.16e5 | 1.01e5 | 60810 | 78340 | 9150 | inactive
pdm2 | 1 | 1.41e5 | 1.40e5 | 73260 | 65810 | 12492 | active
pdm2 | 2 | 46455 | 46745 | 32520 | 37785 | 5100 | inactive
pdm2 | 3 | 1.73e5 | 1.87e5 | 1.26e5 | 1.32e5 | 13650 | active
CG9581 | 1 | 1.44e5 | 1.28e5 | 1.28e5 | 72605 | 12360 | inactive
ppk21 | 1 | 1.38e5 | 1.36e5 | 1.76e5 | 1.68e5 | 11160 | inactive
TotC | 1 | 53500 | 64660 | 67390 | 44610 | 8710 | inactive
RpL27A | 1 | 12005 | 8235 | 14675 | 14042 | 640 | inactive
Reg-5 | 1 | 1.82e5 | 1.58e5 | 1.87e5 | 1.89e5 | 11840 | inactive
CG6836 | 1 | 1.14e5 | 1.18e5 | 85520 | 93580 | 8038 | inactive
snk | 1 | 2.75e5 | 2.53e5 | 2.63e5 | 2.87e5 | 19845 | inactive
l(3)87Df | 1 | 2.45e5 | 2.33e5 | 1.95e5 | 2.08e5 | 18560 | inactive
